Test results as given in the supplement of paper PMC5249140, “Delineating Substrate Diversity of Disparate Short-Chain Dehydrogenase Reductase from Debaryomyces hansenii” (PLoS ONE, 2017).
Single values are uncertain, as repeats are few or missing.

The molecules below were run on DHK short-chain dehydrogenase reductase (Debaryomyces hansenii, Q6BTD7) (assay: apparent turnover number kcat for ketone reduction (NADPH consumption, 100 uM substrate) (s-1); higher = faster reduction of the ketone by the enzyme). Settings: substrate concentration 100 µM; NADPH 100 µM; pH 7.4; 25 °C.
Protocol: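 Purified N-His6 DHK (unannotated SDR, Debaryomyces hansenii) was screened against a prochiral ketone library: 100 uM substrate, 100 uM NADPH, 1% BSA, 4% DMSO in 100 mM sodium phosphate / 100 mM NaCl pH 7.4 at 25 C, ~27 nM enzyme. Rate was followed by NADPH depletion at 340 nm and reported as apparent kcat (s-1) at a single substrate concentration; no replicates stated.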

SMILES | apparent turnover number kcat
N#CC(C(=O)COC(=O)c1cc(=O)[nH]c(=O)[nH]1)=C1Nc2ccccc2N1 | 5.94
O=C(CCN1C(=O)c2cccc([N+](=O)[O-])c2C1=O)OCC(=O)c1ccc(Br)s1 | 5.44
O=C(COc1ccc2ccc(=O)oc2c1)c1cccc([N+](=O)[O-])c1 | 3.49
O=C(CN1C(=O)c2ccc([N+](=O)[O-])cc2C1=O)OCC(=O)c1ccc(Br)cc1 | 3.84
O=C(Cn1nc(-c2cccs2)oc1=O)c1ccc(N2CCCC2=O)cc1 | 5.14
Cc1ccc(C(=O)COc2ccc(-c3cnc4ccccc4n3)cc2)cc1C | 5.17
Cc1ccc(-c2cc3ncc(C(=O)c4cc(C)ccc4O)cn3n2)cc1 | 4.88
COc1ccc(C(=O)Cn2cnc3ccccc3c2=O)cc1OC | 4.21
Cc1ccc(C)c(C(=O)COC(=O)c2nc3nccc(C)n3n2)c1 | 4.13
CC(=O)c1cccc(NC(=O)c2ccc(-c3cc(Cl)ccc3Cl)o2)c1 | 2.94
CCc1c(C#N)c(SCC(=O)c2ccc3c(c2)OCO3)nc2c1C(=O)CC(C)(C)C2 | 4.27
O=C(c1ccccc1)c1ccc(N2CCCCC2)c([N+](=O)[O-])c1 | 4.42
CC(=O)c1cccc(S(=O)(=O)Nc2cc(C(=O)[O-])ccc2C)c1 | 5.41
O=C([O-])CCC(=O)CCC(=O)c1ccccc1 | 4.94
Cc1sc2ncnc(SCC(=O)C(C#N)=C3Nc4ccccc4N3)c2c1C | 3.73
Cc1ccc(O)c(C(=O)c2cnc3cc4c(cc3c2)OCO4)c1 | 0.401
Cc1ccc2c(c1)CCCN2C(=O)CN1C(=O)C(=O)c2ccccc21 | 4.88
Cc1ccc(C(=O)C2=C(O)C(=O)N(CC(=O)[O-])C2c2cccc([N+](=O)[O-])c2)cc1 (centres undefined) | 6.12
CC(=O)c1ccc(NS(=O)(=O)c2cccc(C(C)=O)c2)cc1 | 5.01
O=C(CSc1nnc(-c2ccc(O)cc2)o1)c1ccc(Cl)cc1 | 4.12
O=C(c1ccc(O)cc1O)c1ccc(O)cc1O | 1.36
CC(=O)c1cccc(NS(=O)(=O)c2ccccc2C#N)c1 | 4.65
COc1ccc(O)c(C(=O)c2cnn(C(=O)c3ccc(O)cc3)c2)c1 | 5.93
COc1ccc(O)c(C(=O)c2cnc3cc4c(cc3c2)OCCO4)c1 | 7.05
COC(=O)c1cccc(NS(=O)(=O)c2cccc(C(C)=O)c2)c1 | 4.29

Reformatted: entries from further up.
SMILES	apparent turnover number kcat
O=C(c1ccc(O)cc1O)c1ccc(O)cc1O	1.36
CC(=O)c1cccc(NS(=O)(=O)c2ccccc2C#N)c1	4.65

Further entries follow.

SMILES | apparent turnover number kcat
CC(=O)c1cccc(N(CC(=O)N2CCCC2)S(C)(=O)=O)c1 | 6.11
COc1ccccc1N1C(=O)c2ccc(C(=O)OCC(=O)c3ccc4ccccc4c3)cc2C1=O | 4.34
CC(=O)c1ccc(Sc2ccccn2)c([N+](=O)[O-])c1 | 4.51
COc1ccc(N2CCN(CC(=O)c3ccc(O)cc3O)CC2)cc1 | 3.86
O=C(CCc1ccccc1)OCC(=O)c1ccc([N+](=O)[O-])cc1 | 4.07
O=C(CNC(=O)c1ccccc1)OCC(=O)c1ccc2ccccc2c1 | 7.01
O=C(CNC(=O)c1ccccc1F)OCC(=O)c1c[nH]c2ccccc12 | 4.48
O=C(COC(=O)c1cc2ccccc2oc1=O)c1ccccc1Cl | 5.23
O=C1NC(=O)C(=NNc2ccc(C(=O)c3ccccc3)cc2)C(=O)N1 | 4.66
COc1cccc(N(CC(=O)Nc2cccc(C(C)=O)c2)S(C)(=O)=O)c1 | 6.76
O=C(Cn1ccn(-c2ccc3c(c2)OCO3)c(=O)c1=O)c1ccc(F)cc1 | 3.92
COc1cccc(NC(=O)CC(=O)c2ccccc2)c1 | 4.39
Cc1cc(=O)oc(C)c1C(=O)OCC(=O)c1ccc([N+](=O)[O-])cc1 | 4.27
Cc1ccc(OCC(=O)c2ccc3c(c2)CCCC3)c([N+](=O)[O-])n1 | 5.92
O=C1c2ccccc2C(=O)C1c1cc(O)nc2c1ccc1ccccc12 | 3.66
Cc1ccc(C(=O)C2=C(O)C(=O)N(C)C2c2cccc([N+](=O)[O-])c2)cc1 (centres undefined) | 7.04
CC(=O)c1cc(C#N)c(SCC(=O)c2cc(C)c(C)cc2C)nc1C | 6.06
CC1=C(C(=O)c2ccccc2)C(c2ccc(Cl)c([N+](=O)[O-])c2)NC(=O)N1 (centres undefined) | 4.99
COc1ccc(C(C)=O)cc1CSc1nc(O)cc(O)n1 | 4.23
N#Cc1cc(C(=O)c2ccccc2O)cn(-c2nccs2)c1=O | 7.51
COc1ccc(Cl)cc1NC(=O)CNc1ccccc1C(C)=O | 3.54
Cn1c(N)c(C(=O)COC(=O)Cc2ccc(Cl)cc2)c(=O)n(C)c1=O | 2.59
CC(=O)c1cccc(NS(=O)(=O)c2ccc(C)c([N+](=O)[O-])c2)c1 | 7.72
O=C(Cn1cnc2ccccc2c1=O)OCC(=O)c1ccccc1 | 5.93
CC(=O)c1cccc(N(CC(=O)N2CCCCCC2)S(C)(=O)=O)c1 | 4.09

Reformatted as tab-separated lines: part of the list above.
SMILES	apparent turnover number kcat
CC(=O)c1cccc(N(CC(=O)N2CCCC2)S(C)(=O)=O)c1	6.11
COc1ccccc1N1C(=O)c2ccc(C(=O)OCC(=O)c3ccc4ccccc4c3)cc2C1=O	4.34
CC(=O)c1ccc(Sc2ccccn2)c([N+](=O)[O-])c1	4.51

(next part)

SMILES | apparent turnover number kcat
O=C(Cn1cc(C(F)(F)F)ccc1=O)c1cc2ccccc2o1 | 3.68
O=C(CN1C(=O)C2CCCCC2C1=O)OCC(=O)c1c[nH]c2ccccc12 (centres undefined) | 3.24
N#Cc1cc(C(=O)c2ccccc2O)cn(-c2ccccn2)c1=O | 6
Cc1[nH]c2ccccc2c1C(=O)C(C)OC(=O)c1ccccc1O (centres undefined) | 6.89
CC(=O)c1cccc(N(CC(=O)N2CCC(C(N)=O)CC2)S(C)(=O)=O)c1 | 4.73
Cc1ccc(O)c(C(=O)c2cc(C#N)c(=O)n(-c3ccccn3)c2)c1 | 3.56
CC(=O)c1cccc(N(CC(=O)Nc2cccnc2)S(C)(=O)=O)c1 | 4.54
CC(=O)c1ccc(NC(=O)CSc2nc3[nH]ncc3c(=O)[nH]2)cc1 | 4.38
O=C(CON1C(=O)c2ccccc2C1=O)c1ccc(O)cc1O | 8.35
Cn1c(N)c(C(=O)CN2c3cccc4cccc(c34)S2(=O)=O)c(=O)n(C)c1=O | 4.45
COc1ccc(C)cc1-n1nnnc1SCC(=O)c1ccc[nH]1 | 3.57
Cc1cccc(C(=O)NCC(=O)OCC(=O)c2ccc([N+](=O)[O-])cc2)c1 | 3.38
COc1ccc(C2C(C(=O)c3ccc(Cl)cc3)=C(O)C(=O)N2C)cc1 (centres undefined) | 4.58
COC(=O)c1cc(S(=O)(=O)Nc2ccc(C(C)=O)cc2)ccc1Cl | 6.43
CC1=CC(=NOC(=O)c2cccc([N+](=O)[O-])c2)C=C(C)C1=O | 6.72
O=C(COC(=O)c1cc(O)nc2ccccc12)c1ccccc1 | 3.62
O=C(CSc1nc(-c2ccccc2)cs1)c1ccc([N+](=O)[O-])cc1 | 5.04
O=C1C=C(c2ccccc2)CC(c2cccs2)C1n1nnc([N+](=O)[O-])n1 (centres undefined) | 0.0349
Nc1no[n+]([O-])c1C(=O)CSc1nnnn1-c1ccccc1 | 0.553
Cc1ccc(C(=O)COC(=O)CN2C(=O)c3ccccc3C2=O)cc1 | 5.71
O=C1c2ccccc2C(=O)c2c1ccc1c(=O)n(Cc3ccccc3)[nH]c21 | 4.31
O=C([O-])CN1C(=O)C(O)=C(C(=O)c2ccc([N+](=O)[O-])cc2)C1c1ccc(Br)cc1 (centres undefined) | 5.48
O=C(CN1C(=O)c2ccc(Br)cc2C1=O)OCC(=O)c1ccc(Cl)cc1Cl | 3.11
CC(=O)c1c(C)[nH]c(C(=O)COC(=O)c2nccnc2N)c1C | 5.25
